Measured values from PMC4605734.
Results are given in words; binding and its absence hold for the method and conditions named. In cells and extracts the contact can be indirect. Some binding calls cover weakened binding; strength is not graded here. Where a sequence is shown, tags or fusion partners need not be part of it.

Target: T1, GST-megalin CT (GST fusion of the cytoplasmic tail of megalin) (UniProt P98164)
T1 sequence: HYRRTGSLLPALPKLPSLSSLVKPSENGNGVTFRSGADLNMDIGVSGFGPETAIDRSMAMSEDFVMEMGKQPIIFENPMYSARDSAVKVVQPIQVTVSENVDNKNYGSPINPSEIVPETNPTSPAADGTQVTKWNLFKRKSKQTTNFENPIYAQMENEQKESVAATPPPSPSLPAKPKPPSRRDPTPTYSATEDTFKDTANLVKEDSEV
Experiment: pull-down; about 100 ug GST-megalin CT (or GST) on glutathione-Sepharose mixed with clarified HKC-8 cell lysate (~7.5 mg/ml, 300 ul), 4°C, 60 min; pellet blotted for AS160; only the target purified

binding: binds
B1: Akt substrate 160kDa (AS160), endogenous in HKC-8 cells (protein, UniProt O60343 1-1298)
chain: MEPPSCIQDEPFPHPLEPEPGVSAQPGPGKPSDKRFRLWYVGGSCLDHRTTLPMLPWLMAEIRRRSQKPEAGGCGAPAAREVILVLSAPFLRCVPAPGAGASGGTSPSATQPNPAVFIFEHKAQHISRFIHNSHDLTYFAYLIKAQPDDPESQMACHVFRATDPSQVPDVISSIRQLSKAAMKEDAKPSKDNEDAFYNSQKFEVLYCGKVTVTHKKAPSSLIDDCMEKFSLHEQQRLKIQGEQRGPDPGEDLADLEVVVPGSPGDCLPEEADGTDTHLGLPAGASQPALTSSRVCFPERILEDSGFDEQQEFRSRCSSVTGVQRRVHEGSQKSQPRRRHASAPSHVQPSDSEKNRTMLFQVGRFEINLISPDTKSVVLEKNFKDISSCSQGIKHVDHFGFICRESPEPGLSQYICYVFQCASESLVDEVMLTLKQAFSTAAALQSAKTQIKLCEACPMHSLHKLCERIEGLYPPRAKLVIQRHLSSLTDNEQADIFERVQKMKPVSDQEENELVILHLRQLCEAKQKTHVHIGEGPSTISNSTIPENATSSGRFKLDILKNKAKRSLTSSLENIFSRGANRMRGRLGSVDSFERSNSLASEKDYSPGDSPPGTPPASPPSSAWQTFPEEDSDSPQFRRRAHTFSHPPSSTKRKLNLQDGRAQGVRSPLLRQSSSEQCSNLSSVRRMYKESNSSSSLPSLHTSFSAPSFTAPSFLKSFYQNSGRLSPQYENEIRQDTASESSDGEGRKRTSSTCSNESLSVGGTSVTPRRISWRQRIFLRVASPMNKSPSAMQQQDGLDRNELLPLSPLSPTMEEEPLVVFLSGEDDPEKIEERKKSKELRSLWRKAIHQQILLLRMEKENQKLEASRDELQSRKVKLDYEEVGACQKEVLITWDKKLLNCRAKIRCDMEDIHTLLKEGVPKSRRGEIWQFLALQYRLRHRLPNKQQPPDISYKELLKQLTAQQHAILVDLGRTFPTHPYFSVQLGPGQLSLFNLLKAYSLLDKEVGYCQGISFVAGVLLLHMSEEQAFEMLKFLMYDLGFRKQYRPDMMSLQIQMYQLSRLLHDYHRDLYNHLEENEISPSLYAAPWFLTLFASQFSLGFVARVFDIIFLQGTEVIFKVALSLLSSQETLIMECESFENIVEFLKNTLPDMNTSEMEKIITQVFEMDISKQLHAYEVEYHVLQDELQESSYSCEDSETLEKLERANSQLKRQNMDLLEKLQVAHTKIQALESNLENLLTRETKMKSLIRTLEQEKMAYQKTVEQLRKLLPADALVNCDLLLRDLNCNPNNKAKIGNKP
